Source: paper PMC4808006
No constants are given. Whether binding was seen depends on the method and setting. For part of these data: Binding seen in cells or lysates may run through a third protein. Some results given as binding are weak or reduced against the parent protein; the word gives no strength. For part of these data: Sequences can lack the tags named with a protein.

By UniProt entry, the sequences of proteins in these tests, tags left out.
UniProt Q13547: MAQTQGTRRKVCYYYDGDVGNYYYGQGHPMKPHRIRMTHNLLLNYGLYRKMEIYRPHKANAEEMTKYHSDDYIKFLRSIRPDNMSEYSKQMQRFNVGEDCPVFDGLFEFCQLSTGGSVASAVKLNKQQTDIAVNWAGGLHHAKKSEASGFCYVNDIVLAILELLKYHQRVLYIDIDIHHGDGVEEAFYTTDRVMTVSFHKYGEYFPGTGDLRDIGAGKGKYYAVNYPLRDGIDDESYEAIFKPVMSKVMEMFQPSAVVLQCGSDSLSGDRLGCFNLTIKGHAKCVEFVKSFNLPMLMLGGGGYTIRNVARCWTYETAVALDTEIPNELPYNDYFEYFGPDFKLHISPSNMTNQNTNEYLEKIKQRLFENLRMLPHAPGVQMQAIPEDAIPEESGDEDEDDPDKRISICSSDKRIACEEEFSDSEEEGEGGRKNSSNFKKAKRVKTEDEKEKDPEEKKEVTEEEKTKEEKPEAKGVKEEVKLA
UniProt O00560: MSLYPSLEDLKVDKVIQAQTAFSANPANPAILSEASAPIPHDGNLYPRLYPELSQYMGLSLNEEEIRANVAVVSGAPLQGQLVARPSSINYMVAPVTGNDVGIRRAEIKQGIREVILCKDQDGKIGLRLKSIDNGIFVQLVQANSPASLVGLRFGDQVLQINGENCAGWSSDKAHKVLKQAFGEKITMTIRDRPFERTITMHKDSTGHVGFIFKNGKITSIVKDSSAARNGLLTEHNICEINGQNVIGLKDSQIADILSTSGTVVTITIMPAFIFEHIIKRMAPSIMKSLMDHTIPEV

Legend:
[1] = molecular target: T1, Flag-tagged Slug (wild type) (UniProt O43623); test: co-IP; transient transfection of tagged plasmids in H1299 cells; lysates immunoprecipitated with anti-Flag antibodies, Western blotting
T1 sequence: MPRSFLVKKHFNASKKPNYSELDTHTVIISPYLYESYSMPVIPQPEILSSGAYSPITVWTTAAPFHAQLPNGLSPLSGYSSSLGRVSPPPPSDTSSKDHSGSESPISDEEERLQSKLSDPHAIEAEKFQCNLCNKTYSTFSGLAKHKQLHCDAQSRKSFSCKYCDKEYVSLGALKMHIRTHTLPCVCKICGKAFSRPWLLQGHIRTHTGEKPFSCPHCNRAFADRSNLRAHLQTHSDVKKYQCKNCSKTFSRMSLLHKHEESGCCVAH

HDAC1-Flag = HDAC1-Flag (UniProt Q13547); test: as above
[2] = molecular target: T2, HA-tagged Slug, in vitro translated (UniProt O43623); test: native gel or EMSA; 32P-labeled E-box oligonucleotides incubated with in vitro translated HA-Slug and HA-Syntenin (3 or 6 μl), with or without antibodies (0.3 μg)
T2 sequence: T1 sequence

[3] = molecular target: T3, Slug, endogenous in CL1-5 cells (human (endogenous in CL1-5)) (UniProt O43623); test: co-IP; endogenous proteins in CL1-5 cells; immunoprecipitation and Western blot
T3 sequence: T1 sequence

[4] = molecular target: T4, Slug, two-hybrid bait in the pAS2 vector (UniProt O43623); test: two-hybrid; pACT2-MDA-9/Syntenin (AD) with constructs in the pAS2 vector (BD); colonies grown on selection medium, β-gal assay
T4 sequence: T1 sequence

[5] = molecular target: Flag-tagged WT-Syntenin (human) (UniProt O00560); test: co-IP; transient transfection of tagged plasmids in H1299 cells; lysates immunoprecipitated with anti-Flag antibodies, Western blotting

HA-Syntenin (from UniProt O00560 1-298)
binding [1]: binds | binding (HDAC1-Flag): binds

HA-Syntenin, in vitro translated (from UniProt O00560 1-298)
binding [2]: binds

MDA-9/Syntenin, endogenous in CL1-5 cells (from UniProt O00560 1-298)
binding [3]: binds

pACT2-MDA-9/Syntenin (from UniProt O00560 1-298)
binding [4]: binds

B1: HA-Slug (protein, UniProt O43623 1-268)
chain: T1 sequence
binding [5]: binds
